# The full ranking holds about 1,700 compounds; the median of “T2 sensor activation Q score (MG/GFP ratio z-score vs DMSO controls)” is about 0.3, and the highest 2% start at about 1.9. Some of the results follow.
# Test system: ppGalNAc-T2 sensor
# Assay: T2 sensor activation Q score (MG/GFP ratio z-score vs DMSO controls) (SD units); higher = more sensor activation (inhibition of ppGalNAc-T2 glycosylation)
# Conditions: HEK293 sensor cells; 10 µM; 6 h
# Experimental: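 Cells were treated with compound at 10 uM for 6 h, then MG/GFP ratio was read by flow cytometry (10,000 cells per well, duplicate wells). Q = (R - R_neg)/SD_neg relative to DMSO vehicle controls; the signal rises when the glycosyltransferase is inhibited.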
row,SMILES,T2 sensor activation Q score
1,CO[C@H]1C[C@@H]2CC[C@@H](C)[C@@](O)(O2)C(=O)C(=O)N2CCCC[C@H]2C(=O)O[C@H]([C@H](C)C[C@@H]2CC[C@@H](O)[C@H](OC)C2)CC(=O)[C@H](C)/C=C(\C)[C@@H](O)[C@@H](OC)C(=O)[C@H](C)C[C@H](C)/C=C/C=C/C=C/1C,-1.05
2,NC(=O)C(=Cc1ccncc1)c1cccc2ccccc12,-0.45
3,OC(c1ccccc1)(c1ccccc1)c1nccn1-c1ccccc1,1
4,c1ccc2c(c1)-c1cccc3cncc-2c13,1.15
5,C=CCSc1n[nH]c(-c2cccs2)n1,0.3
6,COc1ccc(NC(=O)c2cc3ccc4c5ccccc5[nH]c4c3cc2O)cc1,-0.95
7,O=C(c1cccnc1)N1CCN(c2ccccc2Cl)CC1,0.15
8,S=C1N(c2ccccc2)CN(C2CCCCC2)CN1c1ccccc1,0.65
9,CC(C)(C)N1CCC1CN (configuration not stated),1.2
10,N#CC1=CC2CN(Cc3ccccc3)C1C1C(=O)N(c3ccccc3)C(=O)C21 (configuration not stated),0.3
11,COc1cc(C(=O)OC(C)CN2CCOCC2)cc(OC)c1OC (configuration not stated),-0.05
12,Cc1nc2ccccc2nc1N1CCCC1,1.5
13,O=S(=O)(O)c1ccc(N=Nc2ccccc2)cc1,-0.35
14,CN(C)S(=O)(=O)c1ccccc1N=C=S,-0.4
15,NCCN1CCNCC1,0.45
16,O=c1c(-c2ccc(O)cc2)coc2cc(O)cc(O)c12,0.15
17,Cc1cc(NC(=O)c2ccccc2)nc(C)n1,1.15
18,Nc1ccc(N=Nc2ccccc2Cl)c(N)n1,1.55
19,COc1ccc(C(=O)O)nc1C,-0.4
20,CC1=CN2C(c3cccc([N+](=O)[O-])c3)=NON(c3ccc(C)cn3)C2C=C1 (configuration not stated),0.85
21,c1ccc(-c2cc3ccccc3[nH]2)cc1,0.85
22,Cc1ccc(S(=O)(=O)NC(=O)Nc2nccs2)cc1,-1.2
23,COc1cc2c(c3c1c(=O)c1cccc(F)c1n3C)C=CC(C)(C)O2,-1.8
24,Nc1ccc(NC(=S)Nc2ccccc2)cc1,1.4
25,FC(F)(F)c1nc2nc(Cl)c(Cl)nc2n1CCCN1CCOCC1,0.25
26,COc1ccccc1C1OC2=C(Nc3ccc([N+](=O)[O-])cc3N2)C1=O (configuration not stated),-0.65

# Exported bar-delimited: part of the list above.
row | SMILES | T2 sensor activation Q score
9 | CC(C)(C)N1CCC1CN (configuration not stated) | 1.2
10 | N#CC1=CC2CN(Cc3ccccc3)C1C1C(=O)N(c3ccccc3)C(=O)C21 (configuration not stated) | 0.3
11 | COc1cc(C(=O)OC(C)CN2CCOCC2)cc(OC)c1OC (configuration not stated) | -0.05

# (listing goes on)

row,SMILES,T2 sensor activation Q score
1,CCNc1nn2ccccc2c1C=C(C#N)C(=O)OCC,0.55
2,O=C(Cn1ccc(=O)[nH]c1=O)Nc1nccs1,-0.4
3,COc1ccc(/C(C#N)=C/c2cccnc2)cc1,1.55
4,CC(C)(C)CC(C)(C)N1CNC(=S)NC1,0.45
5,O=C(Nc1csnn1)c1csnn1,0.2
6,CCc1c2c(nc3ccc(OC(=O)N4CCC(N5CCCCC5)CC4)cc13)-c1cc3c(c(=O)n1C2)COC(=O)[C@]3(O)CC,0.5
7,Cn1[nH]cc(/C=N/C(N)=O)c1=O,-0.15
8,Nc1ccc2c(c1)Cc1cc(Cl)c(Cl)cc1-2,0.5
9,O=C(O)CCNC1CCCCC1,-0.6
10,NC(=O)c1ccccc1NC(=O)COc1ccc(Cl)cc1,-0.45
11,S=c1c2[nH]cnc2ncn1CCSc1ncnc2nc[nH]c12,1.7
12,O=C(NC(=S)Nc1cc(Cl)ccc1O)c1cccc(Br)c1,-0.15
13,COC1C(=O)CCC2(CO2)C1(O)C1(C)OC1CC=C(C)C (configuration not stated),0
14,Cc1cn(C2CC(O)C(CO)O2)c(=O)n(Cc2ccccc2)c1=O (configuration not stated),0.85
15,CSc1nc(=S)c2[nH]c(=S)[nH]c2[nH]1,-0.9
16,Cc1cnc2cc(Cl)ccc2c1SCC(=O)O,1.05
17,CCC1=C[C@@H]2CN(C1)Cc1c([nH]c3ccccc13)[C@@](C(=O)OC)(c1cc3c(cc1OC)N(C)[C@H]1[C@@](O)(C(=O)OC)[C@H](OC(C)=O)[C@]4(CC)C=CCN5CC[C@]31[C@@H]54)C2,1.1
18,CC(C)(C)n1nc(C2CC2)cc1NC(=O)Nc1ccc(Cl)cc1,-0.9
19,CC(C)(C(N)=O)c1ccccc1,1.25
20,CSc1nsc(NN)n1,-0.1
21,NC(=NOC(=O)c1ccccc1)C(Cc1ccccc1)C(=O)NOC(=O)c1ccccc1 (configuration not stated),-0.25
22,NCC(=O)c1cccc2ccc[n+]([O-])c12,0.05
23,CC(C)CC(NC(=O)OCc1ccccc1)C(=O)NC(Cc1c[nH]c2ccccc12)C(=O)O (configuration not stated),0
24,N.N.O=C([O-])C1(C(=O)[O-])CCC1.[Pt+2],0.2
25,Cc1cc2c(cc1C)N(C(=O)CCl)CC(=O)N2,0.5
26,CC1(c2ccccc2)O[C@@H]2C[C@H]3[C@@H]4CCC5=CC(=O)C=C[C@]5(C)[C@@]4(F)[C@@H](O)C[C@]3(C)[C@]2(C(=O)CO)O1 (some centres not stated),1.3

row,SMILES,T2 sensor activation Q score
1,O=c1n(CC2CO2)c(=O)n(CC2CO2)c(=O)n1CC1CO1 (configuration not stated),-0.15
2,O=[N+]([O-])C1C(c2ccccc2)C12c1ccccc1-c1ccccc12 (configuration not stated),-0.65
3,Cc1cc2c(cc1C)NC1=C(N2)OC(c2cccc(O)c2)C1=O (configuration not stated),-0.85
4,COc1ccccc1/C=C1\Cc2ccccc2C1=O,0.7
5,O=C(O)C1CCC(=O)N1C(=O)OCc1ccccc1 (configuration not stated),-0.1
6,O=C(Nc1ccc(Cl)c(Cl)c1)Nc1ccccc1O,-0.7
7,O=[N+]([O-])c1ccc(NN=C(c2ccccc2)c2ccccc2)nc1,1.5
8,CC(NC(=O)c1ccc(Cl)c(Cl)c1)c1ccc(-c2ccccc2)cc1 (configuration not stated),-0.2
9,N#C/C(=C\c1ccc(C#N)cc1)C(=O)c1ccccc1,0.6
10,O=c1[nH]c(=O)n([C@H]2C[C@H](O)[C@@H](CO)O2)cc1F,0.45
11,CC1=CC(=O)C(C(C)=Nc2ccccc2Cl)C(=O)O1 (configuration not stated),0.1
12,CNNCc1ccc(C(=O)NC(C)C)cc1,-0.95
13,Cc1ccc(C)c(N2CCN(c3ccncc3N)CC2)c1,-0.3
14,OCC1(CO)COC2(CCCC2)N1,-0.05
15,O=C1CCC(NC(=O)c2ccccc2)C(=O)N1 (configuration not stated),1.75
16,Nc1cc(=O)[nH]c2ncnn12,0.75
17,N#C/C(=C\c1c[nH]c2ccccc12)C(N)=O,0.8
18,NS(=O)(=O)c1ccc(Cl)cc1[N+](=O)[O-],0.4
19,Nc1ncnc(N2CCOCC2)n1,-0.6
20,CCn1c2ccccc2c2cc(NC(=O)Nc3ccc([N+](=O)[O-])cc3C)ccc21,0.5
21,CN(C)c1nc(=Nc2cccc(Cl)c2)ss1,-1.05
22,O=C1COc2c1ccc(O)c2O,0.6
23,CSc1nc(N)c(C(=O)Nc2ccc([N+](=O)[O-])cc2)s1,0.05
24,O=C(Nc1cccc2ccccc12)c1ccccc1,-0.3
25,CN(C)c1ncnc2c1ncn2-c1ccccc1,0.3
